{
  "sequences": {"note": "Amino acid sequences for entries named in this document (tags omitted).", "UniProt Q7Z434": "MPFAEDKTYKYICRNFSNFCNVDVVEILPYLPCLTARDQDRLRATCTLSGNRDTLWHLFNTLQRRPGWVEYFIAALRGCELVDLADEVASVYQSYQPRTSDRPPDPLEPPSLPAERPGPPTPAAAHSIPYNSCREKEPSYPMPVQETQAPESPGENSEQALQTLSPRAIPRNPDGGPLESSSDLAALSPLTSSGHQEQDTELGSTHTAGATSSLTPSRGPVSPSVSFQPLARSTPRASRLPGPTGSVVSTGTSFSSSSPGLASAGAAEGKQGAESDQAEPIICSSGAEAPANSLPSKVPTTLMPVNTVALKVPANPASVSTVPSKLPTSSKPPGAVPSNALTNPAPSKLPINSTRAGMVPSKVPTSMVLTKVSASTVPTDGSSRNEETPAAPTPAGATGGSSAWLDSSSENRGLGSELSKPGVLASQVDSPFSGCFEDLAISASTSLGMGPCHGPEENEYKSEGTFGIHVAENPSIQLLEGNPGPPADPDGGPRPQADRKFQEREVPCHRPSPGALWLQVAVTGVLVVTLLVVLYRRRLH"},
  "source": "paper PMC10165269",
  "binders": {"B1": {"name": "TRIM28-CA (C65A/C68A), Flag-tagged (protein, UniProt Q13263 1-835)", "chain": "MAASAAAASAAAASAASGSPGPGEGSAGGEKRSTAPSAAASASASAAASSPAGGGAEALELLEHAGVARERLRPEREPRLLPCLHSACSACLGPAAPAAANSSGDGGAAGDGTVVDCPVCKQQCFSKDIVENYFMRDSGSKAATDAQDANQCCTSCEDNAPATSYCVECSEPLCETCVEAHQRVKYTKDHTVRSTGPAKSRDGERTVYCNVHKHEPLVLFCESCDTLTCRDCQLNAHKDHQYQFLEDAVRNQRKLLASLVKRLGDKHATLQKSTKEVRSSIRQVSDVQKRVQVDVKMAILQIMKELNKRGRVLVNDAQKVTEGQQERLERQHWTMTKIQKHQEHILRFASWALESDNNTALLLSKKLIYFQLHRALKMIVDPVEPHGEMKFQWDLNAWTKSAEAFGKIVAERPGTNSTGPAPMAPPRAPGPLSKQGSGSSQPMEVQEGYGFGSGDDPYSSAEPHVSGVKRSRSGEGEVSGLMRKVPRVSLERLDLDLTADSQPPVFKVFPGSTTEDYNLIVIERGAAAAATGQPGTAPAGTPGAPPLAGMAIVKEEETEAAIGAPPTATEGPETKPVLMALAEGPGAEGPRLASPSGSTSSGLEVVAPEGTSAPGGGPGTLDDSATICRVCQKPGDLVMCNQCEFCFHLDCHLPALQDVPGEEWSCSLCHVLPDLKEEDGSLSLDGADSTGVVAKLSPANQRKCERVLLALFCHEPCRPLHQLATDSTFSLDQPGGTLDLTLIRARLQEKLSPPYSSPQEFAQDVGRMFKQFNKLTEDKADVQSIIGLQRFFETRMNEAFGDTKFSAVLVEPPPMSLPGAGLSSQELSGGPGDGP"}},
  "molecular_target": "HA-tagged MAVS (human) (UniProt Q7Z434)",
  "test": "co-IP; 293T cells cotransfected with HA-tagged MAVS and Flag-tagged TRIM28 or its mutants, 48 h; RIPA lysate; immunoprecipitated with an anti-HA antibody on Protein A/G magnetic beads, 2 h at 4 °C; immunoblot with an anti-Flag antibody",
  "note": "No constants are given. Whether binding was seen depends on the method and setting. In cells and extracts the contact can be indirect. Some results given as binding are weak or reduced against the parent protein; the word gives no strength. Tags and fused reporters may be left off the sequences shown.",
  "data": [
    {"binder": "B1", "values": [
      {"measurement": "binding", "result": "binds"}
    ]}
  ]
}
